Reference: PubChem BioAssay AID652243 (Drosophila RNAi Screening Center, 2013)

- Test: 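Fly genes required for human androgen receptor driven transcription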 (primary screen)
- Cell system: Drosophila S2R+ cells
- Reagents: long dsRNA against Drosophila genes
- Timing: 72 h (48 h, then 24 h hormone)
- Conditions: synthetic androgen R1881 at 10 nM for 24 h
- Detection: 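Firefly light from an androgen-responsive reporter and Renilla control light per well, raw and unnormalised, for each of two replicates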
- Scale: firefly reporter light: higher = more light from androgen-responsive reporter; Renilla control light: higher = more constitutive control signal (cell number, transfection)
- Active means: 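Hit when the log firefly-to-Renilla ratio dropped or increased by a fixed fold versus the mean of GFP or LacZ controls across duplicate plates; lowering cut given as 1.5 and as 3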
- Meaning of the calls: active = hit: reporter lowered or raised; inactive = no hit
In all, the deposit lists about 24,000 reagents; this is an unselected part of those with a known target gene and a result. In the full data, 246 (1%) are marked active. 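Plates not normalised; calls are printed but the firefly/Renilla ratio behind them is not deposited; fold cut for lowering reported inconsistently.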 Raw values are not corrected between plates. The numbers tell different reagents against one gene apart. Not given: the amount of reagent.

gene | reagent | firefly reporter light, replicate 1 | firefly reporter light, replicate 2 | Renilla control light, replicate 1 | Renilla control light, replicate 2 | outcome
CG4375 (GeneID 33278) | 1 | 1.17e5 | 1.60e5 | 8.44e5 | 8.00e5 | inactive
CG4375 (GeneID 33278) | 2 | 9.97e5 | 7.73e5 | 1.33e6 | 1.40e6 | inactive
Gr59a (GeneID 117485) | 1 | 6.68e5 | 7.70e5 | 2.69e6 | 2.90e6 | inactive
UQCR-11L (GeneID 246560) | 1 | 1.37e6 | 1.15e6 | 2.19e6 | 1.81e6 | inactive
Smyd4-3 (GeneID 36234) | 1 | 1.11e6 | 7.95e5 | 2.00e6 | 1.04e6 | inactive
Smyd4-3 (GeneID 36234) | 2 | 5.66e5 | 6.31e5 | 1.36e6 | 1.55e6 | inactive
eIF4E5 (GeneID 38878) | 1 | 96807 | 81901 | 1.40e6 | 1.36e6 | inactive
eIF4E5 (GeneID 38878) | 2 | 3.12e5 | 3.79e5 | 8.53e5 | 7.70e5 | inactive
CG17154 (GeneID 39373) | 1 | 1.82e5 | 1.67e5 | 2.43e6 | 1.96e6 | inactive
lectin-30A (GeneID 53541) | 1 | 1.27e5 | 1.32e5 | 1.21e6 | 1.33e6 | inactive
CG17010 (GeneID 34650) | 1 | 1.05e6 | 1.16e6 | 2.71e6 | 2.98e6 | inactive
CG17010 (GeneID 34650) | 2 | 8.10e5 | 4.77e5 | 1.20e6 | 1.20e6 | inactive
CG17010 (GeneID 34650) | 3 | – | – | – | – | inactive
CG33644 (GeneID 3772563) | 1 | 5.45e5 | 5.92e5 | 7.32e5 | 1.18e6 | inactive
Pgcl (GeneID 30984) | 1 | 3.89e5 | 3.63e5 | 3.70e6 | 3.24e6 | inactive
l(1)G0196 (GeneID 33137) | 1 | 6.38e5 | 6.60e5 | 1.28e6 | 1.06e6 | inactive
l(1)G0196 (GeneID 33137) | 2 | 2.83e5 | 1.90e5 | 5.53e5 | 4.27e5 | inactive
l(1)G0196 (GeneID 33137) | 3 | – | – | – | – | inactive
Pepck2 (GeneID 37130) | 1 | 62817 | 88690 | 1.52e6 | 1.88e6 | active
Pepck2 (GeneID 37130) | 2 | 3.02e5 | 2.59e5 | 8.34e5 | 6.87e5 | inactive
Srr (GeneID 41117) | 1 | 1.06e5 | 1.34e5 | 1.73e6 | 2.37e6 | inactive
Srr (GeneID 41117) | 2 | 3.62e5 | 2.32e5 | 6.25e5 | 9.34e5 | inactive
betaNACtes2 (GeneID 32386) | 1 | 4.74e5 | 3.40e5 | 2.96e6 | 3.57e6 | inactive
Sfxn1-3 (GeneID 40552) | 1 | 51225 | 54829 | 1.69e6 | 1.18e6 | inactive
Cul5 (GeneID 43434) | 1 | 2.12e5 | 2.49e5 | 1.64e6 | 3.52e6 | inactive
CG32119 (GeneID 317866) | 1 | 2.83e5 | 2.54e5 | 2.69e6 | 2.82e6 | inactive
CG32119 (GeneID 317866) | 2 | 7.26e5 | 6.79e5 | 2.02e6 | 1.66e6 | inactive
CG32119 (GeneID 317866) | 3 | 5.56e5 | 5.55e5 | 1.41e6 | 1.10e6 | inactive
CG34354 (GeneID 5740528) | 1 | 2.11e5 | 1.62e5 | 3.04e6 | 3.03e6 | inactive
CG34354 (GeneID 5740528) | 2 | 6.88e5 | 7.61e5 | 1.34e6 | 1.47e6 | inactive
CG18558 (GeneID 33482) | 1 | 4.20e5 | 5.27e5 | 1.46e6 | 2.56e6 | inactive
Vha36-2 (GeneID 36328) | 1 | 1.69e5 | 2.02e5 | 1.32e6 | 1.38e6 | inactive
Vha36-2 (GeneID 36328) | 2 | 1.09e6 | 8.66e5 | 1.32e6 | 1.12e6 | inactive
Imp (GeneID 32009) | 1 | 1.73e6 | 1.04e6 | 1.71e6 | 8.71e5 | inactive
Imp (GeneID 32009) | 2 | 90601 | 1.16e5 | 7.05e5 | 6.57e5 | inactive
Imp (GeneID 32009) | 3 | 8.19e5 | 6.77e5 | 2.19e5 | 1.83e5 | inactive
CG3544 (GeneID 33252) | 1 | 8.84e5 | 9.60e5 | 2.71e6 | 2.07e6 | inactive
CG3544 (GeneID 33252) | 2 | – | – | – | – | inactive
CG3544 (GeneID 33252) | 3 | – | – | – | – | inactive
PyK (GeneID 42620) | 1 | 2.42e5 | 2.13e5 | 3.49e6 | 3.35e6 | inactive
PyK (GeneID 42620) | 2 | 4.65e5 | 2.74e5 | 6.10e5 | 2.85e5 | inactive
